Values from PubChem BioAssay AID686938 (Drosophila RNAi Screening Center, 2013).

Test: 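Looking for CRAC channel components and the factors controlling them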 (primary screen)
Cells: Drosophila S2R+ cells
Knock-down reagent: long dsRNA against Drosophila genes, about 0.25 µg dsRNA per well, roughly 10,000 cells
Duration: 5 days of knock-down before the calcium assay
Treatment: thapsigargin (SERCA pump blocker) to empty calcium stores; entry signal taken 4 min after adding it
Read-out: 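Per-well fluo-4 fluorescence in two replicates, unnormalised, measured in resting cells and 4 min after store depletion by the SERCA blocker thapsigargin; ratio of the two present in few wells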
Reading the numbers: calcium entry signal: higher = stronger calcium signal after store depletion; entry to resting ratio: higher = more calcium entry relative to resting level; resting calcium signal: higher = higher resting calcium signal
Call rule: 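Hit if the duplicate-averaged plate z-score for entry over resting signal is under −3; wells with weak total dye signal (Fmax z < −2) or more than 5 off-targets removed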
Meaning of the calls: active = strongly reduced calcium entry; inactive = no strong reduction
The deposit covers about 23,000 reagents; shown is a random part of those with a known target gene and a result. Of all reagents, 75 (0.33%) are marked active. 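Raw plate signals without normalisation; calls rest on plate z-scores that were not deposited; ratio present for only 364 wells.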 A plus sign joins genes that one reagent is predicted to hit. No sequences are given here. The record does not give: the dose of the treatment.

target | dsRNA | calcium entry signal, replicate 1 (fluorescence units) | calcium entry signal, replicate 2 (fluorescence units) | entry to resting ratio | resting calcium signal, replicate 1 (fluorescence units) | resting calcium signal, replicate 2 (fluorescence units) | activity call
CG6012 | DRSC02921 | 3.56e7 | 2.30e7 | – | 1.65e7 | 1.15e7 | inactive
sals | DRSC14925 | 2.79e7 | 3.00e7 | – | 1.20e7 | 1.36e7 | inactive
sals | DRSC16113 | 3.52e7 | 3.20e7 | – | 1.85e7 | 1.80e7 | inactive
CG31104 | DRSC14658 | 3.84e7 | 5.39e7 | – | 2.13e7 | 2.16e7 | inactive
Cp110 | DRSC20630 | 3.54e7 | 4.13e7 | – | 1.67e7 | 1.86e7 | inactive
Cp110 | DRSC21716 | 2.18e7 | 2.61e7 | – | 1.23e7 | 1.27e7 | inactive
crok | DRSC02593 | 3.68e7 | 2.46e7 | – | 1.58e7 | 1.20e7 | inactive
crok | DRSC21349 | 3.73e7 | 3.14e7 | – | 1.99e7 | 1.50e7 | inactive
CG9166 | DRSC07842 | 3.42e7 | 4.47e7 | – | 1.72e7 | 1.80e7 | inactive
lncRNA:CR42859 | DRSC00103 | 1.58e7 | 2.55e7 | – | 8.62e6 | 1.15e7 | inactive
CG33125 | DRSC00145 | 3.19e7 | 4.68e7 | – | 1.72e7 | 2.27e7 | inactive
CG15124 | DRSC06546 | 4.38e7 | 5.37e7 | – | 1.85e7 | 2.29e7 | inactive
Fum2 | DRSC18345 | 2.30e7 | 3.29e7 | – | 1.32e7 | 1.74e7 | inactive
ItgaPS4 | DRSC06630 | 3.46e7 | 4.79e7 | – | 1.90e7 | 1.95e7 | inactive
CG42557 + CG42558 | DRSC13963 | 4.14e7 | 3.58e7 | – | 1.95e7 | 1.94e7 | inactive
CG42557 + CG42558 | DRSC16329 | 3.31e7 | 4.12e7 | – | 1.55e7 | 1.85e7 | inactive
GstE7 | DRSC06677 | 4.06e7 | 3.45e7 | – | 1.85e7 | 1.76e7 | inactive
eIF4E7 | DRSC17782 | 3.99e7 | 5.51e7 | 2 | 2.00e7 | 2.25e7 | inactive
eIF4E7 | DRSC18623 | 4.01e7 | 6.45e7 | 2 | 1.99e7 | 2.58e7 | inactive
Vha36-3 | DRSC18615 | 2.95e7 | 4.93e7 | 1.7 | 1.75e7 | 2.07e7 | inactive
CG2127 | DRSC06821 | 3.71e7 | 3.86e7 | – | 1.72e7 | 1.65e7 | inactive
Sgs8 | DRSC11282 | 2.47e7 | 3.74e7 | – | 1.36e7 | 1.68e7 | inactive
COX7B | DRSC10895 | 4.07e7 | 3.79e7 | – | 1.69e7 | 1.77e7 | inactive
CG12699 | DRSC06162 | 2.40e7 | 2.16e7 | – | 1.21e7 | 9.98e6 | inactive

Quoted from above, 2 entries:
target | dsRNA | calcium entry signal, replicate 1 (fluorescence units) | calcium entry signal, replicate 2 (fluorescence units) | entry to resting ratio | resting calcium signal, replicate 1 (fluorescence units) | resting calcium signal, replicate 2 (fluorescence units) | activity call
COX7B | DRSC10895 | 4.07e7 | 3.79e7 | – | 1.69e7 | 1.77e7 | inactive
CG12699 | DRSC06162 | 2.40e7 | 2.16e7 | – | 1.21e7 | 9.98e6 | inactive
